Consider one compound from patent publication US20220079944A1, “2H-INDAZOLE DERIVATIVES AS THERAPEUTIC AGENTS FOR BRAIN CANCERS AND BRAIN METASTASES” (BETA PHARMA, INC., priority 2019, published 2022).

The test system of this series is MDR1 (P-gp). Description: in vitro. Particulars: dog, MDCK-MDR1.

As for `CC(C)NCC(O)COc1ccc(CC(N)=O)cc1` (stereo not shown) [Atenolol], the Papp came out at 0.06 ×10⁻⁶ cm/s.

Usually Papp stands for a coefficient for how fast a substance crosses the barrier. Read a low Papp as slow passage.
